In article PMC5666619:
No constants are given. Whether binding was seen depends on the method and setting. In cells and extracts the contact can be indirect. Some results given as binding are weak or reduced against the parent protein; the word gives no strength. Tags and fused reporters may be left off the sequences shown.

Amino acid sequences for entries named in this document (tags omitted).
UniProt A8DY81: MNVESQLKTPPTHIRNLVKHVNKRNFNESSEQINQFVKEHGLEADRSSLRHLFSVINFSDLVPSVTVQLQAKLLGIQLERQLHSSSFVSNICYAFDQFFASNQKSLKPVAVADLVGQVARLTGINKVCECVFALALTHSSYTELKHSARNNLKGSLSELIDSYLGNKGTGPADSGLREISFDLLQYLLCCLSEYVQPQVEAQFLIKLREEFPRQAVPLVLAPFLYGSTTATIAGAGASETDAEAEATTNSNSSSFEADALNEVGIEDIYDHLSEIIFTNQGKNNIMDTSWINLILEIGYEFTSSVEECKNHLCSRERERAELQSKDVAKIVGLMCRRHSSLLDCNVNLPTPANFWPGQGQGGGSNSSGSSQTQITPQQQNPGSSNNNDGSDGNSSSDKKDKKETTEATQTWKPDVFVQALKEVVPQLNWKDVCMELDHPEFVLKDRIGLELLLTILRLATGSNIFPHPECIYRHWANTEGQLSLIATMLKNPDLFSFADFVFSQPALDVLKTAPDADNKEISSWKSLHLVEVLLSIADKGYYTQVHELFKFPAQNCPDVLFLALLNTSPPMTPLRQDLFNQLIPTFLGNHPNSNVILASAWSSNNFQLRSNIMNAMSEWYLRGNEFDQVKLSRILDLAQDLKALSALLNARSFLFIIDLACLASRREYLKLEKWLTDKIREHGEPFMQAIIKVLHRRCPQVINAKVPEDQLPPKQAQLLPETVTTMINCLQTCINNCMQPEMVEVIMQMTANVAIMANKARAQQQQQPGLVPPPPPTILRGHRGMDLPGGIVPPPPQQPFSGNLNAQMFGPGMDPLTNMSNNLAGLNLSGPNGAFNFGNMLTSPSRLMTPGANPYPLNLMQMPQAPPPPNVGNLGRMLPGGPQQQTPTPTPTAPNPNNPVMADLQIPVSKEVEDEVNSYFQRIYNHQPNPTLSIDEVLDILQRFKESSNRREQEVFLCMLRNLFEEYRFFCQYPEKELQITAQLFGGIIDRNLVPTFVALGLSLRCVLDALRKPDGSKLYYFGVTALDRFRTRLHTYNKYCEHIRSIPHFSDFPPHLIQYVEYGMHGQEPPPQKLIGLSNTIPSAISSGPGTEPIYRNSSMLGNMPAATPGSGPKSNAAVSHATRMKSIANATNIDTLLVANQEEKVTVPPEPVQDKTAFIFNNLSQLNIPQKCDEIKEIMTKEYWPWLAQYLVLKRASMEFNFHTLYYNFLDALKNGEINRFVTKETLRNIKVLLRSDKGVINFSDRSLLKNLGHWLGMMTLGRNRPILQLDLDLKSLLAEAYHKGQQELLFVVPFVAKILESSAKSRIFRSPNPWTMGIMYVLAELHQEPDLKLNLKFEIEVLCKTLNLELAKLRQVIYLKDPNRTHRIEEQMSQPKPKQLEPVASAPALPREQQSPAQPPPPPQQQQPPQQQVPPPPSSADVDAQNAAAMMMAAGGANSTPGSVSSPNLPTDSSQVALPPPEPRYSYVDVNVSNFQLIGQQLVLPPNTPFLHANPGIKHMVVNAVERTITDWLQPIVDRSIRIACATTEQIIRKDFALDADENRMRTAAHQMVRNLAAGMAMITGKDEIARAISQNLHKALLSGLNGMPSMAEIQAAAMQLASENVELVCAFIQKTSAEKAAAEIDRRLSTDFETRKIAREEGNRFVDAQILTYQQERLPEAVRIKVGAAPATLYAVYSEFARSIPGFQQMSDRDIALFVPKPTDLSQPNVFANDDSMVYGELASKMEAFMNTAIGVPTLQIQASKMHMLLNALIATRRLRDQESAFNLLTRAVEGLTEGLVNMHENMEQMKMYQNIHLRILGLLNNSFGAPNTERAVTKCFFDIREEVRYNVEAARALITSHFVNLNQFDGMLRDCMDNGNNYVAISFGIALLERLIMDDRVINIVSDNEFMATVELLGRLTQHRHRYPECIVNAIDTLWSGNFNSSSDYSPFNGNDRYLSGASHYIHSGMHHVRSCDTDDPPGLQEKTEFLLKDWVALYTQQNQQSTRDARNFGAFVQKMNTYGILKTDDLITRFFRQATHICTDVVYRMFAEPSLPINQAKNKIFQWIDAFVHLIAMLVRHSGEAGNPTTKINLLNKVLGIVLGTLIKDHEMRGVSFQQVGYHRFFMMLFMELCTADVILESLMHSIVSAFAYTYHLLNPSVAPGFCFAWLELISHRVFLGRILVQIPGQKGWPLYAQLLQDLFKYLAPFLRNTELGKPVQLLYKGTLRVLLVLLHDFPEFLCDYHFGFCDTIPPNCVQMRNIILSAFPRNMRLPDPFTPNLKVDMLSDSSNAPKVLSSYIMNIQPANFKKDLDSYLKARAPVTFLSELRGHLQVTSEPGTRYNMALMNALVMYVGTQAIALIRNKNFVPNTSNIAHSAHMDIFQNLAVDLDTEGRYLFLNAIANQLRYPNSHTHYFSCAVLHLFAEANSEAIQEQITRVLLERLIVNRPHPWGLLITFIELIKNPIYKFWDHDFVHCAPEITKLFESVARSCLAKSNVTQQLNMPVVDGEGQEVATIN

Biological target: T1, GFP-Aub (Aubergine) (Drosophila) (UniProt O76922)
T1 sequence: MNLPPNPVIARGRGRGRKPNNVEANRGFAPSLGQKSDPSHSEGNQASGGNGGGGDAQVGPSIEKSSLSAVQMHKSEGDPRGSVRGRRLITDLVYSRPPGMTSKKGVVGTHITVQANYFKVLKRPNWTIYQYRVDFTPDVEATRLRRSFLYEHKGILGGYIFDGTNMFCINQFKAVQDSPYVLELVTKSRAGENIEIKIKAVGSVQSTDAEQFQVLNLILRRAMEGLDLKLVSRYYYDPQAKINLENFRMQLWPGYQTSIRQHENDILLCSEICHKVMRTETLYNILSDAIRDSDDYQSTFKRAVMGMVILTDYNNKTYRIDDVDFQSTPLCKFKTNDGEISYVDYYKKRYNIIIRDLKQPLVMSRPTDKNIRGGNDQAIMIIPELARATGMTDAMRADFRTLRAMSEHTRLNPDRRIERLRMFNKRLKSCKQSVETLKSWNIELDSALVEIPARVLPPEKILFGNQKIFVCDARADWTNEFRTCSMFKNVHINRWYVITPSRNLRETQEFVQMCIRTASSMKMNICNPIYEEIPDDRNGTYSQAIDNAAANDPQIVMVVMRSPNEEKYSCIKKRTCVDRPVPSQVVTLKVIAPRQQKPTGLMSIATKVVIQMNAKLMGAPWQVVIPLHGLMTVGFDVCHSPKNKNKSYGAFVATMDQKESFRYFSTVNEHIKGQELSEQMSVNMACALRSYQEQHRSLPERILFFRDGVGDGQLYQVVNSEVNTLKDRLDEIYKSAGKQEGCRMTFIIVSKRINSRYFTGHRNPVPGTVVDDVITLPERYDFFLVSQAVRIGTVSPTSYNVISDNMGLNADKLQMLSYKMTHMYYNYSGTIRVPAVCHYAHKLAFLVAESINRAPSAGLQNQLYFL
Experiment: co-IP; ovarian extracts (60 ovaries, 3-day-old females) in DXB-150 (25 mM Hepes-KOH pH 6.8, 250 mM sucrose, 1 mM MgCl2, 1 mM DTT, 150 mM NaCl, 0.1% Triton X-100) with RNase inhibitor or RNase A; IP with mouse anti-GFP (3E6) on Dynabeads Protein G, 3 h at 4°C; Western blot; wild-type extract as mock IP

- binding: binds
Substance: NOT1 (from UniProt A8DY81 1-2505)
